## Library screening results

Sequences of proteins named here, by UniProt entry; tags and fusion partners are left off.
UniProt E9BF75, entry or part of it: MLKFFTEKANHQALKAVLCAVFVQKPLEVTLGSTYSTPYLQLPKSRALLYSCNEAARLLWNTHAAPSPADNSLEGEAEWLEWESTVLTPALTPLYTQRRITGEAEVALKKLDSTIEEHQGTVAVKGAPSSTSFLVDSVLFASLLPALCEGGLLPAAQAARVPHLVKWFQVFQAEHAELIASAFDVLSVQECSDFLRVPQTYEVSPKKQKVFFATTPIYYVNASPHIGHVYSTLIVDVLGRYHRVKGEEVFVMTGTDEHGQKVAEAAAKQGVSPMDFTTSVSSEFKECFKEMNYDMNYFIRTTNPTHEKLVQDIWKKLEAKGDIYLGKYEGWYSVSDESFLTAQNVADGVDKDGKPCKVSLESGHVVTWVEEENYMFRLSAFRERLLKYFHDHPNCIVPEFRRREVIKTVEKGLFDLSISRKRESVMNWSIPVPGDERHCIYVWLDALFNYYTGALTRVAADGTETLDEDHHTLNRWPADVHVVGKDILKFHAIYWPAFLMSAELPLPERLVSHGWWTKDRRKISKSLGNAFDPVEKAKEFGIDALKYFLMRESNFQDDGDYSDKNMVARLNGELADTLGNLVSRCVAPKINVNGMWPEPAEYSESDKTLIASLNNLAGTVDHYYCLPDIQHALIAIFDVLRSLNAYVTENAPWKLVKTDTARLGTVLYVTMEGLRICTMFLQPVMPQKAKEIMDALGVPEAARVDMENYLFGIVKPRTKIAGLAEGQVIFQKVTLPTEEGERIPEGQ

Data taken from ChEMBL document CHEMBL3988442, “University of Dundee, Small-Polar-MMV Screening Library” (2021).

LdMetRS: 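Methionyl-tRNA synthetase (putative), Leishmania donovani (UniProt E9BF75). Primary screen of methionyl-tRNA synthetase; the read-out is not stated. The test concentration is not given. The values are filed as inhibition. About 68,000 compounds were tested under these conditions; 0.035% (about 24) showed 50% or more at least once.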
Mtb heat-shock: 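Assay on Mycobacterium tuberculosis, filed only as a heat shock assay from Cornell; the read-out is not stated. The concentration is filed as 10 mM, unlikely as a test dose, so the dose is not known. The record gives no direction; compounds that gave an IC50 in retests scored well above the rest, so higher reads as stronger inhibition. About 69,000 compounds were tested under these conditions; 1.4% (about 930) showed 50% or more at least once.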

Results are percentages, as filed.
The controls that fix the scale are not given in the record; negative values are as filed.
Compounds were drawn at random from those tested, without regard to their results.

{"compound": "COc1cccc(N2CCN(Cc3cccc(CCN)c3)CC2=O)c1", "LdMetRS": 27.04, "Mtb heat-shock": 16.12}
{"compound": "Cl.c1cnc2c(c1)cc([C@H]1CCCO1)n2CCN1CCCCC1", "Mtb heat-shock": -26.14}
{"compound": "Cc1ncsc1C(=O)NCc1ccnc(OCC(F)(F)F)c1", "LdMetRS": 19.13, "Mtb heat-shock": -36.25}
{"compound": "CC(C)NC(=O)CC1COC2(CCN(Cc3ccsc3)CC2)C1.O=C(O)C(F)(F)F", "stereo": "centres undefined", "Mtb heat-shock": -6.674}
{"compound": "O=C(NC[C@H]1OC[C@@H](NC2CCC(F)(F)CC2)[C@@H]1O)c1ccccc1", "LdMetRS": 0.339, "Mtb heat-shock": -15.55}
{"compound": "Cc1cnc(CN(C)C2CCCN(Cc3noc(C4CC4)n3)C2)cn1", "stereo": "centres undefined", "LdMetRS": 2.286, "Mtb heat-shock": 0.3275}
{"compound": "CN1CCN(C)C(c2nnc3ccc(C(=O)N4CCOCC4)cn23)C1", "stereo": "centres undefined", "LdMetRS": 11.54}
{"compound": "Cn1nc(CC(C)(C)C)cc1NC(=O)c1ccc2[nH]nnc2c1", "LdMetRS": 10.45, "Mtb heat-shock": 7.02}
{"compound": "CCn1cc(NC(=O)CN2CCC(Oc3ccc(F)cc3)CC2)c(C)n1", "LdMetRS": 16.04}
{"compound": "[H][C@@]12CN(C3CCOCC3)C[C@@]1([H])N(Cc1ccncc1)C(=O)CO2", "Mtb heat-shock": -19.8}
{"compound": "CCOc1ccc(S(=O)(=O)NC(=O)CC2CCCO2)cc1", "stereo": "centres undefined", "LdMetRS": 10.12, "Mtb heat-shock": -18.47}
{"compound": "CN(CCc1noc(C2CC2)n1)C(=O)C1(N2CCCC2)CCCC1", "LdMetRS": 16.1, "Mtb heat-shock": -0.2214}
{"compound": "O=C(c1ccc(F)c(F)c1)N1CCCSCC1CN1CCCC1", "stereo": "centres undefined", "LdMetRS": 20.59, "Mtb heat-shock": 8.71}
{"compound": "CCN1C(=O)CC[C@]12CC[C@@H](NC(=O)c1cc(C)on1)CC2", "LdMetRS": -12.78, "Mtb heat-shock": -5.485}
{"compound": "CNc1cccc(CC2COCCN(C(=O)c3cnn(C)c3)C2)n1", "stereo": "centres undefined", "LdMetRS": 18.07, "Mtb heat-shock": -14.77}
{"compound": "CC(C)(C)NC(=O)N1CCC(NC(=O)Cc2cccnc2)CC1", "LdMetRS": 14.21, "Mtb heat-shock": 2.015}
{"compound": "COc1ccc(OCCc2sc(C3(O)CCCNCC3)nc2C)cc1", "stereo": "centres undefined", "LdMetRS": 7.877}
{"compound": "O=C(O)C(F)(F)F.O=C(c1ccccc1)N1CCC[C@]2(C[C@@H](OCc3ccccn3)CO2)C1", "Mtb heat-shock": -2.89}
{"compound": "O=C(CO[C@@H]1CC[C@H]2[C@H]1OCCN2c1ncccn1)N1CCCC1", "LdMetRS": 14.19}
{"compound": "Cc1ccc(N2CCCC(N(C)c3nn4cc(C)nc4s3)C2)nn1", "stereo": "centres undefined", "LdMetRS": 11.48, "Mtb heat-shock": 7.938}
{"compound": "CC(=O)N1CCCC1c1cc(Nc2nnc(C)s2)nc(C)n1", "stereo": "centres undefined", "LdMetRS": -0.6472, "Mtb heat-shock": -32.77}
{"compound": "COCCN1C[C@@H](c2ccccc2)[C@@]2(CCN(CC(=O)N(C)C)C2=O)C1.O=C(O)C(F)(F)F", "Mtb heat-shock": -3.522}
{"compound": "Cc1cnn(CC2CN(CC(=O)Nc3nccs3)CCO2)c1", "stereo": "centres undefined", "LdMetRS": 13.68, "Mtb heat-shock": -1.813}
{"compound": "Cc1ccccc1NC(=O)c1cncc(C2CCNCC2)n1", "LdMetRS": 11.02}
{"compound": "[H][C@@]12CCCCCN(C(C)=O)[C@@]1([H])[C@H](c1cccc(F)c1)CN2C(=O)COC", "Mtb heat-shock": -9.37}
{"compound": "CCOC(=O)C1CCN(C(=O)CN2CCCC2c2ccsc2)CC1", "stereo": "centres undefined", "LdMetRS": 7.88, "Mtb heat-shock": -4.28}
{"compound": "CCC(NC(=O)CN(C)Cc1ccc(C)o1)c1ccc(C)cc1", "stereo": "centres undefined", "LdMetRS": 10.44, "Mtb heat-shock": 22.6}
{"compound": "COc1ccc(CN2C[C@@H]3CCCO[C@@H]3[C@H](NC(=O)CC3CC3)C2)cc1", "LdMetRS": 16.3}
{"compound": "COC(=O)CCCn1ccnc1-c1ccccc1", "LdMetRS": 9.946, "Mtb heat-shock": -33.93}
{"compound": "O=C(CCO)N1CCOC2(CCCN(C(=O)c3ccco3)C2)C1", "stereo": "centres undefined", "LdMetRS": -6.299, "Mtb heat-shock": -18.71}
{"compound": "Cl.NCC(=O)N1CCCC1c1nccnc1Nc1ncccn1", "stereo": "centres undefined", "Mtb heat-shock": -12.16}
{"compound": "COCC(=O)N1CCC(c2n[nH]c3nccnc23)CC1", "LdMetRS": 5.412, "Mtb heat-shock": -0.8158}
{"compound": "CCOc1ccc(C(C)Nc2ncnc3c2CCNC3)cc1OCC", "stereo": "centres undefined", "LdMetRS": 21.7, "Mtb heat-shock": 6.644}
{"compound": "Cc1csc(N2CCCN(C(=O)C(C)n3ccnc3)CC2)n1", "stereo": "centres undefined", "LdMetRS": 14.92, "Mtb heat-shock": -4.561}
{"compound": "CCNc1ncc2c(n1)CN(c1ccc(Cl)cc1)C2=O", "LdMetRS": 19.85, "Mtb heat-shock": 4.904}
{"compound": "CC(=O)c1csc(-c2csc(Cn3ccc(=O)[nH]c3=O)n2)c1", "LdMetRS": 4.188, "Mtb heat-shock": 2.433}
{"compound": "Cc1ccccc1N1CCN(C(=O)c2cnc(C3CC3)nc2)C(C)C1", "stereo": "centres undefined", "LdMetRS": 15.93, "Mtb heat-shock": 19.13}
{"compound": "CC(O)CNCc1ccc(OCc2ccc3c(c2)OCCO3)cc1.Cl", "stereo": "centres undefined", "Mtb heat-shock": 10.09}
{"compound": "COc1ccc(OC2CCN(C(=O)c3cnc(C)s3)CC2)cc1", "LdMetRS": 19.76, "Mtb heat-shock": -2.403}
{"compound": "CCN(CC)C(=O)CCNC(=O)c1c[nH]c2ccc(OC)cc12", "Mtb heat-shock": 4.512}